# Reference: PubChem BioAssay AID330 (DTP/NCI, 2004)
# The list is a part of this screen's results and no random one: it is rich in T/C values a quarter to a half above the control, in often repeated tests (any T/C) and in doses without a T/C. Further doses and runs are listed elsewhere. T/C: endpoint of the treated group in % of that of the vehicle group. Some doses have a count of surviving animals in place of a T/C: the source holds a T/C of zero for them, seemingly a mark for toxic or unscored doses. Some doses without a T/C left all or most animals alive at the check, yet need not have been tolerated: the source hardly ever lists a survival T/C far under the control, and the zero likely stands for such cases as well. Survivors were counted at the toxicity check, usually on the fifth day, unless a day is given; later deaths do not show. Schedules are NCI's codes, read here as Q, the interval in days (D) or hours (H), X, the number of doses. For survival time, this PubChem deposit counts one and a half times the control or more as active, and values a quarter to a half above the control carry no call in these data; other NCI protocols may use other cut-offs. Some T/C values carry the count of animals alive at the toxicity check (mostly the fifth day); where none is given, no animal had died by that day. Some doses were run more than once; the values are given in rising order.
# System: P388 leukemia ip, CD2F1 mice, survival T/C
# Assay: NCI In Vivo Anticancer Drug Screen. Data for tumor model P388 Leukemia (intraperitoneal) in CD2F1 (CDF1) mice
# Conditions: T/C endpoint: median survival time, higher T/C = longer survival
# [1] = dose: 50.0 mg/kg/injection, schedule: Q01DX009 (ip), vehicle: saline
# [2] = dose: 100.0 mg/kg/injection, schedule: Q01DX009 (ip), vehicle: saline
# [3] = dose: 200.0 mg/kg/injection, schedule: Q01DX009 (ip), vehicle: saline with Tween-80
# [4] = dose: 200.0 mg/kg/injection, schedule: Q01DX009 (ip), vehicle: Klucel (hydroxypropylcellulose) (HPC)
# [5] = dose: 25.0 mg/kg/injection, schedule: Q01DX009 (ip), vehicle: saline
structure (smiles),measurement,setting,value
CCCCN(CCCC)CCCNc1nccc2ccccc12,survivor count,"dose: 50.0 mg/kg/injection, schedule: Q01DX005 (ip), vehicle: saline",0 of 6
same,survivor count,"dose: 100.0 mg/kg/injection, schedule: Q01DX005 (ip), vehicle: saline",0 of 6
same,survivor count,"dose: 200.0 mg/kg/injection, schedule: Q01DX005 (ip), vehicle: saline",0 of 6
CCN1C(C)N1P(=S)(OC1CC(C)(C)N(O)C(C)(C)C1)OC1CC(C)(C)N(O)C(C)(C)C1 (stereo unspecified),survivor count,"dose: 200.0 mg/kg/injection, schedule: Q01DX005 (ip), vehicle: Klucel (hydroxypropylcellulose) (HPC)",6 of 6
Cc1c2ccnc(C(N)=O)c2c(C)c2c1[nH]c1ccccc12,T/C,"dose: 200.0 mg/kg/injection, schedule: Q04DX002 (ip), vehicle: distilled water + Tween-80",126 % of control
same,T/C,"dose: 400.0 mg/kg/injection, schedule: Q04DX002 (ip), vehicle: distilled water + Tween-80",131 % of control
COC(=O)C(Br)C(Br)c1ccccc1 (stereo unspecified),T/C,[1],127 % of control
same,T/C,[2],129 % of control
same,T/C,"dose: 200.0 mg/kg/injection, schedule: Q01DX009 (ip), vehicle: saline",132 % of control
O=C1C2=Cc3ccccc3CN2Cc2ccccc21,survivor count,"dose: 75.0 mg/kg/injection, schedule: Q01DX009 (ip), vehicle: saline with Tween-80",6 of 6
O=C(NCN1CCOCC1)c1ccccc1O,survivor count,"dose: 400.0 mg/kg/injection, schedule: Q04DX002 (ip), vehicle: saline with Tween-80",5 of 5
O=C1C(=Cc2cccnc2)C(=O)c2ccccc21,survivor count,"dose: 240.0 mg/kg/injection, schedule: Q01DX005 (ip), vehicle: saline with Tween-80",0 of 6
O=C([Se][Se]C(=O)c1ccccc1)c1ccccc1,survivor count,"dose: 50.0 mg/kg/injection, schedule: Q01DX009 (ip), vehicle: saline with Tween-80",0 of 6
same,survivor count,"dose: 100.0 mg/kg/injection, schedule: Q01DX009 (ip), vehicle: saline with Tween-80",0 of 6
same,survivor count,[3],0 of 6
FC(F)(F)COP1(OCC(F)(F)F)(OCC(F)(F)F)SC(C(F)(F)F)=C(C(F)(F)F)S1,T/C,"dose: 200.0 mg/kg/injection, schedule: Q04DX002 (ip), vehicle: saline",128 % of control [4 of 5 alive]
same,survivor count,"dose: 400.0 mg/kg/injection, schedule: Q04DX002 (ip), vehicle: saline",5 of 5
Cc1ccc(NC(=O)NCc2ccncc2)cc1NC(=O)NCc1ccncc1,survivor count,[4],2 of 6
COC(=O)c1n[nH]c(C(C)C)c1N=NN(C)C,T/C,[5],135 % of control
same,survivor count,[5],5 of 6
same,T/C,[1],134 [5 of 6 alive] and 139 % of control
CC(=O)NC1C(OC(C)=O)OC(C[Se][As](C)C)C(OC(C)=O)C1OC(C)=O (stereo unspecified),survivor count,[4],0 of 6
NC(=S)N/N=C/c1ccc2c(c1)OCO2,survivor count,[3],3 of 6
[CH3][Ga][CH3].[CH3][Ga][CH3].[CH3][Ga][CH3].[CH3][Ga][CH3].[OH3+].[OH3+].[OH3+].[OH3+],survivor count,"dose: 20.0 mg/kg/injection, schedule: Q04DX003 (ip), vehicle: saline with Tween-80",0 of 6
same,survivor count,"dose: 100.0 mg/kg/injection, schedule: Q04DX003 (ip), vehicle: saline sonified",0 of 6
same,survivor count,"dose: 200.0 mg/kg/injection, schedule: Q04DX003 (ip), vehicle: saline sonified",0 of 6
same,survivor count,"dose: 400.0 mg/kg/injection, schedule: Q04DX003 (ip), vehicle: saline sonified",0 of 6
NCc1ccc(O)c(O)c1O,survivor count,"dose: 400.0 mg/kg/injection, schedule: Q01DX009 (ip), vehicle: saline",6 of 6
same,survivor count,"dose: 600.0 mg/kg/injection, schedule: Q01DX009 (ip), vehicle: saline",3 of 6
N#Cc1cn(C2OC(CO)C(O)C2O)c2ncnc(N)c12 (stereo unspecified),T/C,"dose: 0.07 mg/kg/injection, schedule: Q04DX003 (ip), vehicle: other",126 % of control
same,survivor count,"dose: 0.45 mg/kg/injection, schedule: Q04DX003 (ip), vehicle: other",5 of 6
same,survivor count,"dose: 6.25 mg/kg/injection, schedule: Q04DX003 (ip), vehicle: saline with Tween-80",6 of 6
same,survivor count,"dose: 12.5 mg/kg/injection, schedule: Q04DX003 (ip), vehicle: saline with Tween-80",0 of 6
same,survivor count,"dose: 25.0 mg/kg/injection, schedule: Q04DX003 (ip), vehicle: saline with Tween-80",1 of 6
same,T/C,"dose: 100.0 micrograms/kg/injection, schedule: Q04DX003 (ip), vehicle: other",128 % of control
COC(=O)c1ccoc1,T/C,[2],125 % of control
